Part of at least one peptide drawing is inferred or uncertain, most often the ends. Numbered stars: 1 amine (or outer) side, 2 acyl side, 3 side chain; on linkers, the order of the positions; unused ones are H or OH. Square brackets hold non-standard residues; d marks the D form. Peptide text beside a SMILES is read from it. azaLeu = CC(C)CN(N[*:1])C(=O)[*:2]; βAla = NCCC(=O)O
Tested on: P. infestans
Type: cell-based
Settings: 200 µM; P. infestans mycelium; peptidomimetics

Structure (SMILES) | PPI (%) ± Std. Dev.
CSCC[C@@H]1NC(=O)[C@H](Cc2c[nH]c3ccccc23)NC(=O)[C@H](CCCNC(=N)N)NC(=O)CCNC(=O)[C@H](CCCNC(=N)N)NC(=O)[C@H](CCCNC(=N)N)NC(=O)[C@H](Cc2ccc(O)cc2)NC(=O)[C@H](C(C)C)NC(=O)N(CC(C)C)NC1=O [LR109, HN-βA-RWM-aL-VYRR-CO] (cyclo(M[azaLeu]VYRR[βAla]RW)) | 70.64 ± 6.7 (c) %
CSCC[C@H](NC(=O)[C@H](Cc1c[nH]c2ccccc12)NC(=O)[C@H](CCCNC(=N)N)NC(=O)CCN)C(=O)NN(CC(C)C)C(=O)N[C@H](C(=O)N[C@@H](Cc1ccc(O)cc1)C(=O)N[C@@H](CCCNC(=N)N)C(=O)N[C@@H](CCCNC(=N)N)C(N)=O)C(C)C [LR36, H2N-βA-RWM-aL-VYRR-CONH2] (H-[βAla]RWM[azaLeu]VYRR-NH2) | 68.81 ± 7.03 (c) %
